Data: US10857167B2, “Use of oligosaccharide compositions to enhance weight gain” (Children's Hospital Medical Center, priority 2015, dated 2020)
This continues a long series; more values of the same kind are listed elsewhere.

Test system: distal small bowel gene expression
Test: RNA sequencing / transcriptional analysis of small bowel 56 days after ICR (2′-FL signature response)
Format: in vivo, mouse
Source text: Luminal small bowel contents were expressed into AllProtect Tissue Reagent (Qiagen Inc, CA). Bacterial DNA was extracted using the AllPrep DNA/RNA Mini Kit (Qiagen Inc, CA), according to kit instructions and prior to sequencing (described below). Small bowel tissue samples for RNA were placed into RNA Later (Life Technologies, NY). RNA extraction was accomplished following Qiagen RNeasy Plus Kit instruction (Qiagen Inc, CA). All nucleic acid samples were then stored at -80 Celsius until sequenced (described below). Transcriptional analysis was carried out on resected and harvested small bowel samples obtained from operated mice taken to 8 weeks. Murine RNA sequencing libraries were prepared from approximately 1.5 μg RNA using the TruSeq RNA Sample Preparation Kit (Illumina, Calif.) and sequenced using the HiSeq 2000 Sequencing System (Illumina, Calif.) with single-end 50 bp reads. Following removal of primers and barcodes, sequences were aligned to the mm10 genome using reference annotations from UCSC (Rosenbloom et al. (2015) Nucleic acids research 43: […]-681) (n=36,186 entities). Aligned reads were quantified and used to compute reads per kilobase per million mapped reads (RPKM); raw counts were then normalized using the DESeq algorithm and each harvested sample was baselined to its own resected sample. A filter was applied to the data, requiring at least three reads in all samples of at least one of the four experimental conditions (n=14,489 entities). The data discussed in this publication have been deposited in NCBI's Gene Expression Omnibus and are accessible through NCBI Gene Expression Omnibus (GEO) Series accession number GSE72590. Edgar et al. (2002) Nucleic acids research 30: 207-210. In order to characterize the impact of 2'-FL supplementation while accounting for the effect of ileoecal resection, a t-test was applied between resected and harvested samples within control and experimental animals. Significance was set at a p-value of ≤0.05 and a fold change of 3, which generated 2,576 differentially regulated entities across two comparisons. Gene set unions and intersections of the control and experimental gene sets were identified through Venn diagrams. From the master list, the gene list specific to animals supplemented with 2'-FL were removed in order to identify genes differentially regulated only by ICR (n=546 entities); this gene set characterizes the adaptive response. Further, the 2'-FL response (n=2,030 entities) was identified by removing the adaptive response signature described above from the master list, leaving only genes regulated by 2'-FL supplementation after ICR which were not found in the non-supplemented adaptive response. Heatmaps were generated using hierarchical clustering with the Pearson's Centered distance metric and the average linkage rule; both entities and samples were clustered. All genomic analyses described above were performed in Strand NGS (Strand Life Sciences, CA). Gene list functional enrichment was initially discovered using ToppFun, a member of the ToppGene Suite. Chen et al. (2009) Nucleic acids research 37: […]-311. No statistical correction was selected. Gene lists were further analyzed using ClueGO, a plugin for Cytoscape designed to decipher functionally grouped gene ontology and pathway annotation networks. Bindea et al. (2009) Bioinformatics 25: 1091-1093. At the time of data analysis, the annotation files were updated from sources to Jan. 1, 2015. “GO Term Fusion” was enabled to manage ontologic term redundancy and network specificity was set to medium. Results were restricted to pathways with p≤0.05 using Benjamini-Hochberg correction and Kappa scoring was set to 0.4. Biocyc annotations were assigned a rectangle, gene ontology biologic processes were assigned an ellipse, and […] annotations were assigned a diamond shape. No meaning was assigned to size or color. […]

C[C@@H]1O[C@@H](O[C@H]2[C@H](O[C@H]3[C@H](O)[C@@H](O)C(O)O[C@@H]3CO)O[C@H](CO)[C@H](O)[C@@H]2O)[C@@H](O)[C@H](O)[C@@H]1O (stereo partly shown) [2′-FL, 2′-fucosyllactose]
Fold Change (Pre- to Post-op) (gene Prelp): −7.993 | Fold Change (Pre- to Post-op) (gene Prex1): −3.715 | Fold Change (Pre- to Post-op) (gene Prkar1b): −4.024 | Fold Change (Pre- to Post-op) (gene Proser1): −3.407 | Fold Change (Pre- to Post-op) (gene Prox1): −6.28 | Fold Change (Pre- to Post-op) (gene Prpf8): −4.161 | Fold Change (Pre- to Post-op) (gene Prrc2a): −7.106 | Fold Change (Pre- to Post-op) (gene Prrc2b): −6.144 | Fold Change (Pre- to Post-op) (gene Prrg3): −6.516 | Fold Change (Pre- to Post-op) (gene Prrt2): −3.049 | Fold Change (Pre- to Post-op) (gene Psmb6): 3.04 | Fold Change (Pre- to Post-op) (gene Ptger1): −3.016 | Fold Change (Pre- to Post-op) (gene Ptpn9): −3.175 | Fold Change (Pre- to Post-op) (gene Ptpn14): −4.975 | Fold Change (Pre- to Post-op) (gene Ptprb): −4.231 | Fold Change (Pre- to Post-op) (gene Ptprm): −3.997 | Fold Change (Pre- to Post-op) (gene Ptprn): −6.834 | Fold Change (Pre- to Post-op) (gene Ptprn2): −4.391 | Fold Change (Pre- to Post-op) (gene Pvrl1): −5.314 | Fold Change (Pre- to Post-op) (gene Pygb): −3.516 | Fold Change (Pre- to Post-op) (gene Pyy): −4.067 | Fold Change (Pre- to Post-op) (gene Qser1): −3.066 | Fold Change (Pre- to Post-op) (gene R3hdm2): −5.084 | Fold Change (Pre- to Post-op) (gene Rab17): 3.039 | Fold Change (Pre- to Post-op) (gene Rad54l2): −3.188 | Fold Change (Pre- to Post-op) (gene Radil): −4.409 | Fold Change (Pre- to Post-op) (gene Rai1): −3.4 | Fold Change (Pre- to Post-op) (gene Rapgef1): −3.382 | Fold Change (Pre- to Post-op) (gene Rarg): −3.982 | Fold Change (Pre- to Post-op) (gene Rasgrp3): −3.727 | Fold Change (Pre- to Post-op) (gene Rassf8): −3.671 | Fold Change (Pre- to Post-op) (gene Rcan2): −3.53 | Fold Change (Pre- to Post-op) (gene Rcc2): −4.586 | Fold Change (Pre- to Post-op) (gene Rcor1): −5.596 | Fold Change (Pre- to Post-op) (gene Rcor2): −3.832 | Fold Change (Pre- to Post-op) (gene Rdh1): −9.098 | Fold Change (Pre- to Post-op) (gene Reck): −3.697 | Fold Change (Pre- to Post-op) (gene Rere): −5.753 | Fold Change (Pre- to Post-op) (gene Ret): −3.961 | Fold Change (Pre- to Post-op) (gene Rexo1): −3.149 | Fold Change (Pre- to Post-op) (gene Rftn1): −5.51 | Fold Change (Pre- to Post-op) (gene Rfx1): −3.628 | Fold Change (Pre- to Post-op) (gene Rfx2): −3.221 | Fold Change (Pre- to Post-op) (gene Rgl1): −4.147 | Fold Change (Pre- to Post-op) (gene Rgma): −7.777 | Fold Change (Pre- to Post-op) (gene Rgp1): −3.128 | Fold Change (Pre- to Post-op) (gene Rgs7bp): −4.455 | Fold Change (Pre- to Post-op) (gene Rgs12): −3.405 | Fold Change (Pre- to Post-op) (gene Rimbp2): −3.777 | Fold Change (Pre- to Post-op) (gene Rin3): −6.563 | Fold Change (Pre- to Post-op) (gene Rnf26): −3.258 | Fold Change (Pre- to Post-op) (gene Rnf39): −4.08 | Fold Change (Pre- to Post-op) (gene Rnf44): −3.882 | Fold Change (Pre- to Post-op) (gene Rnf123): −3.016 | Fold Change (Pre- to Post-op) (gene Rnf145): −3.718 | Fold Change (Pre- to Post-op) (gene Rnf169): −5.832 | Fold Change (Pre- to Post-op) (gene Robo4): −4.701 | Fold Change (Pre- to Post-op) (gene Rps6ka3): −3.23 | Fold Change (Pre- to Post-op) (gene Rreb1): −3.94 | Fold Change (Pre- to Post-op) (gene Rrp1b): −4.476 | Fold Change (Pre- to Post-op) (gene Runx1t1): −3.846 | Fold Change (Pre- to Post-op) (gene Rusc2): −5.98 | Fold Change (Pre- to Post-op) (gene S1pr3): −4.05 | Fold Change (Pre- to Post-op) (gene Safb): −3.012 | Fold Change (Pre- to Post-op) (gene Safb2): −4.195 | Fold Change (Pre- to Post-op) (gene Sall2): −4.298 | Fold Change (Pre- to Post-op) (gene Samd4b): −4.849 | Fold Change (Pre- to Post-op) (gene Samd14): −3.117 | Fold Change (Pre- to Post-op) (gene Sart1): −3.301 | Fold Change (Pre- to Post-op) (gene Satb1): −4.068 | Fold Change (Pre- to Post-op) (gene Satb2): −7.47 | Fold Change (Pre- to Post-op) (gene Sbf2): −3.294 | Fold Change (Pre- to Post-op) (gene Scaf4): −3.508 | Fold Change (Pre- to Post-op) (gene Scd3): −9.216 | Fold Change (Pre- to Post-op) (gene Scd4): −4.298 | Fold Change (Pre- to Post-op) (gene Scg3): −4.905 | Fold Change (Pre- to Post-op) (gene Scn9a): −5.496 | Fold Change (Pre- to Post-op) (gene Scnn1a): −3.551 | Fold Change (Pre- to Post-op) (gene Scube1): −5.889 | Fold Change (Pre- to Post-op) (gene Sdc3): −3.31 | Fold Change (Pre- to Post-op) (gene Sec31a): −3.309 | Fold Change (Pre- to Post-op) (gene Sema4c): −3.6 | Fold Change (Pre- to Post-op) (gene Sema6a): −3.4 | Fold Change (Pre- to Post-op) (gene Sema6c): −4.005 | Fold Change (Pre- to Post-op) (gene Sema4d): −5.098 | Fold Change (Pre- to Post-op) (gene Setd1a): −4.558 | Fold Change (Pre- to Post-op) (gene Setd1b): −12.66 | Fold Change (Pre- to Post-op) (gene Setd2): −4.039 | Fold Change (Pre- to Post-op) (gene Sez6l2): −5.201 | Fold Change (Pre- to Post-op) (gene Sf1): −3.678 | Fold Change (Pre- to Post-op) (gene Sf3a2): −7.792 | Fold Change (Pre- to Post-op) (gene Sf3b3): −3.328 | Fold Change (Pre- to Post-op) (gene Sfxn5): −4.939 | Fold Change (Pre- to Post-op) (gene Sgtb): −4.041 | Fold Change (Pre- to Post-op) (gene Sh2b2): −6.791 | Fold Change (Pre- to Post-op) (gene Sh3bp1): −5.739 | Fold Change (Pre- to Post-op) (gene Sh3kbp1): −3.7 | Fold Change (Pre- to Post-op) (gene Sh3pxd2a): −5.598 | Fold Change (Pre- to Post-op) (gene Sh3pxd2b): −4.203 | Fold Change (Pre- to Post-op) (gene Sh3rf1): −3.367 | Fold Change (Pre- to Post-op) (gene Shank2): −12.68 | Fold Change (Pre- to Post-op) (gene Shisa7): −5.311 | Fold Change (Pre- to Post-op) (gene Shroom3): −4.051 | Fold Change (Pre- to Post-op) (gene Shroom4): −5.774 | Fold Change (Pre- to Post-op) (gene Siglec1): −4.753 | Fold Change (Pre- to Post-op) (gene Siglece): −4.016 | Fold Change (Pre- to Post-op) (gene Sik2): −5.871 | Fold Change (Pre- to Post-op) (gene Sik3): −3.681 | Fold Change (Pre- to Post-op) (gene Simc1): −3.024 | Fold Change (Pre- to Post-op) (gene Sipa1): −5.75 | Fold Change (Pre- to Post-op) (gene Sipa1l1): −4.66 | Fold Change (Pre- to Post-op) (gene Sipa1l2): −3.458 | Fold Change (Pre- to Post-op) (gene Sipa1l3): −6.282 | Fold Change (Pre- to Post-op) (gene Ski): −4.917 | Fold Change (Pre- to Post-op) (gene Slc2a3): −7.565 | Fold Change (Pre- to Post-op) (gene Slc2a10): −3.066 | Fold Change (Pre- to Post-op) (gene Slc6a6): −5.089 | Fold Change (Pre- to Post-op) (gene Slc7a1): −3.243 | Fold Change (Pre- to Post-op) (gene Slc7a8): −7.746 | Fold Change (Pre- to Post-op) (gene Slc8a2): −6.736 | Fold Change (Pre- to Post-op) (gene Slc9a1): −5.862
